# Experimental data reported in the supplement of paper PMC3334620.
# Whole data set: some 33,000 sequences, median “E-score (-0.5 to 0.5)” near -0.015, cut for the highest 2% near 0.3. The list shows a part of the results.
# Biological target: T1, Abf1 (UniProt P14164)
# T1 sequence: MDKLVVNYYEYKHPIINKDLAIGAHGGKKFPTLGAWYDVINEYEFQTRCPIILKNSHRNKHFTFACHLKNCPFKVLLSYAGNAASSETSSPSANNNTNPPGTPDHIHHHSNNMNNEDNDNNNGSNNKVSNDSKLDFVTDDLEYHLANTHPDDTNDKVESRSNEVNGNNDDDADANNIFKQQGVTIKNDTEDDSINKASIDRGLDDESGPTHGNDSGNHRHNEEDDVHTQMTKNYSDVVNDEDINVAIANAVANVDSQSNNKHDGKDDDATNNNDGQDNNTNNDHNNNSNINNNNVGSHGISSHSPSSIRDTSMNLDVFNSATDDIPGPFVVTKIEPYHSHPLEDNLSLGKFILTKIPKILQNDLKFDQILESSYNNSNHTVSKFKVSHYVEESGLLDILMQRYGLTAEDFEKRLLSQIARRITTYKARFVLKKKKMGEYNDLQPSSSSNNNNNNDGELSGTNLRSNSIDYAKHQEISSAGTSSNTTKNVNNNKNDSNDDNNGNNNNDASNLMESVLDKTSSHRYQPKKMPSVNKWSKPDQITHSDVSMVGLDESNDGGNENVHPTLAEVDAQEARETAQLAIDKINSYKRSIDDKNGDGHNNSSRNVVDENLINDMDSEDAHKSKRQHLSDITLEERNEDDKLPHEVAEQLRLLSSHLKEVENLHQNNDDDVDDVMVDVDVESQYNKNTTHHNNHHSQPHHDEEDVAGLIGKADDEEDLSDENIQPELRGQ
# Test: PBM E-score (8-mer binding enrichment) (E-score (-0.5 to 0.5)); higher = stronger / more preferred TF binding
# Settings: protein concentration: 200 nM; construct: GST-full length
# Procedure, shortened: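 E-scores (a modified Wilcoxon-Mann-Whitney statistic) were assigned by the Universal PBM Analysis Suite to every ungapped eight-base word pooled with its reverse complement. The input came from universal all-10-mer Agilent arrays made double-stranded by primer extension and probed with GST-tagged yeast transcription factors at about 100-200 nM. Fluorescent anti-GST detected bound protein, and masliner normalised the scans.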
row,Sequence,PBM E-score
1,CCACTGTC,-0.129
2,AAGTGCGA,-0.122
3,GCGTTTAA,-0.00471
4,CCGCCTTC,-0.262
5,CCCGAAGG,-0.143
6,TGCTAGCA,0.0679
7,GCACACTA,-0.111
8,CGCTTCTA,0.115
9,TAACACTA,0.21
10,ACCGGGAG,-0.135
11,ATGTCTCC,-0.00691
12,ACCAAAAC,0.0329
13,CGTGAAGA,0.116
14,CTGGACGC,-0.0835
15,GAATATCA,0.334
16,AGGACCGG,-0.209
17,GGACCGGA,-0.0591
18,ATAAGATC,0.153
19,CACAACCG,-0.00582
20,CAGATCCC,-0.155
21,CCTTCTTA,-0.027
22,GGCAGCCA,-0.171
23,ATGGACGA,0.26
24,GCTCTAGA,-0.151
25,CTACTTGA,-0.0709

row,Sequence,PBM E-score
1,ATGTGGAC,0.0328
2,CTGTTACC,-0.136
3,GCGTAGAC,-0.0682
4,TCGACCAA,-0.126
5,GTGGCGTA,-0.0944
6,TATTCCAA,0.108
7,ACCGCCAA,-0.124
8,CATTCTTA,0.185
9,AGGAACTG,-0.293
10,ATGTTGTG,0.0648
11,ACCGGCGC,-0.0873
12,GTGGAATA,-0.00804
13,ACTCCGCG,-0.11
14,GACGAGCA,0.0707
15,ACGACAGA,0.308
16,CGCCAAAA,-0.0534
17,ACTTCGAC,0.0389
18,CATGCTGG,-0.109
19,CTCTGATC,-0.00919
20,ATCCAAGA,-0.0165
21,TGAGATAA,0.191
22,CCGTGCTC,0.187
23,GGTATGAC,-0.0891
24,ATATGTTC,0.0482
25,CCTCTGAA,-0.222

row,Sequence,PBM E-score
1,CCTCGTCC,-0.0917
2,ATAATCAC,0.331
3,TTACAAAA,0.00518
4,AAGCCGAT,0.0822
5,GGCCCAGA,-0.346
6,CCTGCGGC,-0.271
7,AAACCACC,-0.115
8,ACTACCCA,-0.0214
9,CCCCGGGA,-0.274
10,AGAAGATC,0.00278
11,CCAGTGCA,-0.0128
12,AGCAACAT,-0.115
13,CCGAGCTC,0.0661
14,ACATAAAT,0.172
15,GGACTAAC,0.0161
16,CAGTCGAG,-0.177
17,AGGTCATA,0.00674
18,AGCCTAAC,-0.156
19,GCCCCACC,-0.318
20,CAATCCGA,0.0384
21,AGTGGCCC,-0.198
22,AAAGAATG,0.2
23,GACCTGGA,-0.0772
24,AACCTCCT,-0.131
25,CCGGAGTA,0.175

row,Sequence,PBM E-score
1,CTGCGTTC,-0.0469
2,CATACCAA,-0.177
3,AGACGATC,0.113
4,ACTGGGAC,-0.051
5,GCACAGAA,0.0128
6,AACAACGT,0.11
7,GCACAGCA,0.0353
8,GGACCGTA,0.108
9,ATCGTCTG,0.148
10,CCCGCGGG,-0.00852
11,ACGTGCCA,-0.181
12,TATACTAA,0.131
13,ATATTCGG,0.0544
14,ATTTACGC,0.0524
15,GGCGGCCA,-0.191
16,AAGTTTCA,0.0531
17,CGCACACA,-0.0281
18,GGCGCCAA,7e-05
19,CGTCAGTC,0.117
20,GCTTGCTA,-0.179
21,AGTTGAGA,-0.014
22,CTGATAAA,0.112
23,ACCGAGTC,-0.224
24,ACCGACAG,-0.269
25,CCCGACCC,-0.197

# Reprinted from the entries so far (five entries):
row,Sequence,PBM E-score
20,GCTTGCTA,-0.179
21,AGTTGAGA,-0.014
22,CTGATAAA,0.112
23,ACCGAGTC,-0.224
24,ACCGACAG,-0.269

# Later entries

row,Sequence,PBM E-score
1,ACTATATA,0.237
2,CATGCTAC,-0.221
3,GATAGCCA,-0.0722
4,AGGCCCAG,-0.314
5,TAACAGTA,0.0116
6,CTCGAACC,-0.235
7,CACAGGAG,-0.0222
8,CTGTGTGC,-0.137
9,CGCTACGA,-0.0617
10,CGTGCCCC,-0.249
11,GCGAGCTA,0.0665
12,AGAGTAAA,-0.0681
13,ACGTTACT,0.205
14,CATTGTCG,0.132
15,TCAAAGCA,0.106
16,AACACAAA,0.0149
17,ACAGTCAA,0.0752
18,ATGCGTCC,-0.0187
19,GGACGCAA,-0.151
20,ATAGTAAC,0.0798
21,CAGGCTAG,-0.296
22,ACGCACGA,0.389
23,CTGTGAAA,0.134
24,ATAGTTCG,0.106
25,AAATTCCT,-0.165

row,Sequence,PBM E-score
1,CGTGTCAG,0.27
2,GAAACTAC,0.111
3,CCTCCAGC,-0.322
4,ATATACAT,0.109
5,AGGTATTG,0.0691
6,ACGACCTC,0.227
7,GAACACTA,0.0777
8,ATTGTTTA,0.206
9,CATTGTAG,-0.0418
10,CTTGTTCC,-0.284
11,GTACTATA,0.145
12,CCGAGACC,-0.279
13,TTAATCAA,0.0929
14,AACTTACG,0.134
15,CAGGAAAC,0.099
16,GTGAAAAC,0.138
17,AGCGAAGC,-0.103
18,CAAAAGCA,0.0336
19,AAGTTGAC,0.0221
20,CATCACCC,0.279
21,ACAGCGCT,-0.232
22,GGAGCAAC,-0.141
23,GGGAAACC,-0.12
24,AAATCCGG,-0.0659
25,GAACCGAA,0.0912

row,Sequence,PBM E-score
1,GGTGATAA,0.404
2,CGGGGCTC,-0.181
3,AGGTAAAT,-0.0502
4,CGAGGGGA,-0.09
5,CGTTAATC,0.163
6,CTAAACAA,-0.0606
7,ATCCCCCG,-0.0688
8,ACCAACCT,-0.0713
9,GCTATTAC,0.0967
10,ACAGTCTA,0.013
11,CCACTTGA,-0.162
12,TAGCACTA,0.0327
13,GGATGCCA,-0.0872
14,GGTCAGTA,-0.145
15,GGGAATAC,0.0905
16,ACACATAC,-0.181
17,AAAGTGGT,-0.0319
18,ATCAAGCC,-0.0375
19,CCGCGGGC,-0.252
20,CTAAATGA,0.191
21,AAGCCCTC,-0.108
22,TCATAAAA,0.149
23,ATTCATCG,0.0813
24,CGTGCCGC,0.0341
25,ACACTGAG,-0.0257

# Some values from the results shown:
# PBM E-score with AACACAAA reads 0.0149
# PBM E-score with GAACCGAA reads 0.0912
# PBM E-score with CGAGGGGA reads -0.09
# PBM E-score with GAACACTA reads 0.0777
# PBM E-score with CTGTTACC reads -0.136

# The results go on:

row,Sequence,PBM E-score
1,ACTTGAAG,-0.101
2,CAAAACGG,0.0219
3,GCTCTTCC,-0.24
4,AAACCGAC,-0.0139
5,ATCTCTGA,-0.0693
6,CCTAACCG,-0.0664
7,AATCCGAT,0.118
8,CAGAAACA,-0.0715
9,GCAAACTA,-0.0507
10,ACACCTAA,-0.0285
11,AGCGGTTC,-0.215
12,ACGGAATG,0.201
13,CCAGTGTC,-0.09
14,GGACTGAA,-0.181
15,AAACCAGA,-0.161
16,ACGGGGAA,0.039
17,ACAGATGA,-0.0461
18,AACACCCT,-0.0765
19,ATTGGTAA,0.0216
20,GCGTGGCC,-0.202
21,AGCGATGC,-0.0615
22,CGGCCTTA,0.113
23,ACAAGTGC,-0.0568
24,CTCGAGCA,0.0548
25,AGAATCAT,-0.0649

row,Sequence,PBM E-score
1,CTTCATCC,-0.0431
2,ATCACTGA,0.205
3,CTACTGCA,-0.18
4,ATCGTCAG,0.154
5,CAGTCAGG,-0.242
6,CGCCTGTC,-0.135
7,GAAATATA,0.137
8,CAAGAGAG,0.0634
9,GTCGAGGA,0.12
10,ACCATGCC,-0.0871
11,AACCACAG,-0.111
12,TAGATACA,-0.0265
13,AAGGCGTC,-0.118
14,GCCGTACC,0.356
15,ACGAAATA,0.147
16,CAGGCCGG,-0.192
17,CCTGCCCA,-0.197
18,CCGTGGAG,-0.0764
19,CAGTCCGA,-0.0199
